Assay [1] addresses T1, human VEGFA165 (human, UniProt P15692-4 27-191).
T1 construct: Bought protein from two suppliers, treated as one molecule; the supplier is named under assay; also called antigen VEGFA
The assay can be described thus: ELISA, human VEGFA165 coated on the plate, anti-His detection. In general terms: An ELISA detects its analyte on a solid surface through an enzyme-linked reagent.

Amino acid sequences for entries named in this document (tags omitted). A change or cut given only in a name is not applied to a line headed by its entry. Chains listed by the source or under a name are the forms on record and can include a tag or linker.
human VEGFA165 (P15692-4, form named): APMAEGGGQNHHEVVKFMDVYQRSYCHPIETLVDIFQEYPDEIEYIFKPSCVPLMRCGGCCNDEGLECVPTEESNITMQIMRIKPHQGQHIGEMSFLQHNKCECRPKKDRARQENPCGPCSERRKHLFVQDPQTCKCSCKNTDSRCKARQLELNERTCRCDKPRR

Assay [2] addresses T1, human VEGFA165. In words: competitive ELISA, VEGFA coated on the plate, competitor VEGFR2-ECD-Fc at 1 nM, anti-human IgG detection.

The values that follow come from patent US20260234232A1 (QUAERITE BIOPHARM RESEARCH BEIJING, published 2026).

Numbering of substitutions follows the chain as printed. No constants are given. Whether binding was seen depends on the method and setting. Some entries that bind do so weakly or less than the wild type.

B1: 2V1-EAAAK-Turn (VHH)
chain: QLQLVESGGGSVQPGGSLRLSCEVSGRTFSSYTMGWFRQAPGKEREFVVAISKGGYKYDSVSLEARFTISKDNTKNTVYLQMNSLKPEDTAVYYCAATRAYGSSRLRLADTYEYWGQGTQVTVSSPDSEAAAKEAAAKEAAAKEAAAKEAAAKPDGSSQLQLVESGGGSVQPGGSLRLSCEVSGRTFSSYTMGWFRQAPGKEREFVVAISKGGYKYDSVSLEARFTISKDNTKNTVYLQMNSLKPEDTAVYYCAATRAYGSSRLRLADTYEYWGQGTQVTVSS
notes: Tandem bivalent nanobody
As for B1, the binding entry in assay [1] and in assay [2] was “binds” in each case.

B2: 2V15-EAAAK-Turn (VHH)
chain: B1 chain with S30A, A97G, D110E, S188A, A255G, D268E
notes: Tandem bivalent nanobody
For the molecule B2, the binding result in assay [1] and in assay [2] was “binds” throughout.
